According to the supplement of paper PMC11006884:
The list shows a part of the results, in another mix than the full data.

Protein sequences, listed by entry. Tags and fused reporters are not part of them. Lines headed by an entry give the natural chain unless they say otherwise; changes in a name come on top.
UniProt O43929: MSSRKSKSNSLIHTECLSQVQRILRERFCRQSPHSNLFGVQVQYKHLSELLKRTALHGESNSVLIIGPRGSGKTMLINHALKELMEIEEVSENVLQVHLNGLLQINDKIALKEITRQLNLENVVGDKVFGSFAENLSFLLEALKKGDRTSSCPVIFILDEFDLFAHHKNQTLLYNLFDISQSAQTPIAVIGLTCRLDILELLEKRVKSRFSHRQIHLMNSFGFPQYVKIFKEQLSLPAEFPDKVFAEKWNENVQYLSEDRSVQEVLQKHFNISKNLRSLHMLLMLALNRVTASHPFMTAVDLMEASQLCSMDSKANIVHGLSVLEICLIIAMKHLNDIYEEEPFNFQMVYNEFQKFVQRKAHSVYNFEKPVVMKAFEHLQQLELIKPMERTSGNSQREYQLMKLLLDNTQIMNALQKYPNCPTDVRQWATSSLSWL
UniProt O43776: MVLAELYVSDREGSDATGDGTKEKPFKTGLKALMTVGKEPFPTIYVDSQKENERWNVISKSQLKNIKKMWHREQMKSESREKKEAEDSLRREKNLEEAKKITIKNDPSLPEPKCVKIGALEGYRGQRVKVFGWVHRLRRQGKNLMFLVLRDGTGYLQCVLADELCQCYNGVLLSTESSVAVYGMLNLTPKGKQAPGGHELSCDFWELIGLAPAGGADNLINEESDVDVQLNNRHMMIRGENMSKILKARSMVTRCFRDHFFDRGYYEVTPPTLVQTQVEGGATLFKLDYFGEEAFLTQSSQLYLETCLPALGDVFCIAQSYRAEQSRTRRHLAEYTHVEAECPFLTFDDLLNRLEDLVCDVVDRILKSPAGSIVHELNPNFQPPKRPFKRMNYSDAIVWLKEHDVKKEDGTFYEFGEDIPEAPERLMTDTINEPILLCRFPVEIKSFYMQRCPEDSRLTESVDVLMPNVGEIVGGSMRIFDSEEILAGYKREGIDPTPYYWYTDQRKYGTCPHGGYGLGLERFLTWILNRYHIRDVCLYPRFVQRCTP
UniProt O75533, whole entry, looked up: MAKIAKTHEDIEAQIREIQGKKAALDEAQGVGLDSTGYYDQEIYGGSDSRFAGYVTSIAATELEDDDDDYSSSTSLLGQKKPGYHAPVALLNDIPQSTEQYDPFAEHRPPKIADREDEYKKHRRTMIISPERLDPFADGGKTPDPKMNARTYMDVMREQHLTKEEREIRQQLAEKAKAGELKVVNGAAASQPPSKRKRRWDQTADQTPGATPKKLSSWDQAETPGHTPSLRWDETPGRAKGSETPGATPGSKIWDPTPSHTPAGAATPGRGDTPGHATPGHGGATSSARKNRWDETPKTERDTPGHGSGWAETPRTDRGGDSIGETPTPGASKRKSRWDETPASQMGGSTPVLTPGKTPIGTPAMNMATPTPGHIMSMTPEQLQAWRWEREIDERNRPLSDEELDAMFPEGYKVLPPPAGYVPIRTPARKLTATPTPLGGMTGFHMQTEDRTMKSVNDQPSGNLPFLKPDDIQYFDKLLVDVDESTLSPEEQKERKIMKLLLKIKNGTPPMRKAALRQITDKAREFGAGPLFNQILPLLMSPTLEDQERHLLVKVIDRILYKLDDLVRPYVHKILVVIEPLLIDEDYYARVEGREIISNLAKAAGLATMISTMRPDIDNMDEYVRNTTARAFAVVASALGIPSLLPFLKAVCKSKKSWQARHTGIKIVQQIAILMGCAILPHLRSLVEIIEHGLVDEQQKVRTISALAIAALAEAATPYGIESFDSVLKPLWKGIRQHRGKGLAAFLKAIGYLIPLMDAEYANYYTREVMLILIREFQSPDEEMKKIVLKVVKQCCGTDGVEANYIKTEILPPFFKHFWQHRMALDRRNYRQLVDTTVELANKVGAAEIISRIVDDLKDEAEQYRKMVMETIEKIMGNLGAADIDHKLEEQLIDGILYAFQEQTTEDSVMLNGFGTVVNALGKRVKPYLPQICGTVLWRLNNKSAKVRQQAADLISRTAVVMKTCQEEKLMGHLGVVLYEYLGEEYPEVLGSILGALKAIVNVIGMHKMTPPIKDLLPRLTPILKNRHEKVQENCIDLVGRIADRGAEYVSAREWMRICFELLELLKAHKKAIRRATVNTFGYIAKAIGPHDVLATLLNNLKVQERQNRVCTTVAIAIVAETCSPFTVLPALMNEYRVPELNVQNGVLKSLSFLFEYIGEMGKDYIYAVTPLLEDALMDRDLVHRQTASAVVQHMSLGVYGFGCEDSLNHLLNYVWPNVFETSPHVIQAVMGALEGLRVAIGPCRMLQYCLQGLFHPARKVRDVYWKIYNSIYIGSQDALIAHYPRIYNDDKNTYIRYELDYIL
UniProt O60232: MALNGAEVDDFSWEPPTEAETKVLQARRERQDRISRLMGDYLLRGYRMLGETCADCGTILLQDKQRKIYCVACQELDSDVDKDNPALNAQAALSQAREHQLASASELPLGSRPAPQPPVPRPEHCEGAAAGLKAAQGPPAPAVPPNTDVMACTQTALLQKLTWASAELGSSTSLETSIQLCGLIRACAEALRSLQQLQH
UniProt O75534: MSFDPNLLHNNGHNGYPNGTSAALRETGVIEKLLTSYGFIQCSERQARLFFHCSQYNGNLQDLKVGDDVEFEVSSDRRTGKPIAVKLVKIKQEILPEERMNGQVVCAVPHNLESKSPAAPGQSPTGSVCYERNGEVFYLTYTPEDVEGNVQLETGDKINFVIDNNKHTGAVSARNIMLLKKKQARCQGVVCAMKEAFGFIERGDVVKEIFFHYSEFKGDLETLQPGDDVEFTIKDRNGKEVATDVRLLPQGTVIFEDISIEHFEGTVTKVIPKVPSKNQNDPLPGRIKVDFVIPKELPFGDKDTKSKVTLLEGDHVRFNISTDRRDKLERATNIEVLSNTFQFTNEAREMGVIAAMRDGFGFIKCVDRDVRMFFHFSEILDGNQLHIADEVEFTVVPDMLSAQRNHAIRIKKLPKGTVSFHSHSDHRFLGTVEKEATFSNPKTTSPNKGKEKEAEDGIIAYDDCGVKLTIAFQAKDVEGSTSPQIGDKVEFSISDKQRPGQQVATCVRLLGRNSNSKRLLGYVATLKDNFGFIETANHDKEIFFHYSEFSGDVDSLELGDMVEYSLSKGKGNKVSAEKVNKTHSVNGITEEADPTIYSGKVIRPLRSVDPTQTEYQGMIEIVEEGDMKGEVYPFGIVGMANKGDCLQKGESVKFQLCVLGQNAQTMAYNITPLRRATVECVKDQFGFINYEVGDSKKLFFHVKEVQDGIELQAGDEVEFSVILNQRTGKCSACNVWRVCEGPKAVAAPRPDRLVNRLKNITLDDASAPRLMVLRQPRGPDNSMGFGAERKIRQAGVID
UniProt O75935, whole entry, looked up: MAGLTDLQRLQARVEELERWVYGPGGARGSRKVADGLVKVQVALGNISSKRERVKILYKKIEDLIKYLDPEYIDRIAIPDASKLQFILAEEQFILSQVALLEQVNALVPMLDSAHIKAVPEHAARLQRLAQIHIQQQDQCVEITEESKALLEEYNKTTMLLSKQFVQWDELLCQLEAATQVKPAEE
UniProt O75131: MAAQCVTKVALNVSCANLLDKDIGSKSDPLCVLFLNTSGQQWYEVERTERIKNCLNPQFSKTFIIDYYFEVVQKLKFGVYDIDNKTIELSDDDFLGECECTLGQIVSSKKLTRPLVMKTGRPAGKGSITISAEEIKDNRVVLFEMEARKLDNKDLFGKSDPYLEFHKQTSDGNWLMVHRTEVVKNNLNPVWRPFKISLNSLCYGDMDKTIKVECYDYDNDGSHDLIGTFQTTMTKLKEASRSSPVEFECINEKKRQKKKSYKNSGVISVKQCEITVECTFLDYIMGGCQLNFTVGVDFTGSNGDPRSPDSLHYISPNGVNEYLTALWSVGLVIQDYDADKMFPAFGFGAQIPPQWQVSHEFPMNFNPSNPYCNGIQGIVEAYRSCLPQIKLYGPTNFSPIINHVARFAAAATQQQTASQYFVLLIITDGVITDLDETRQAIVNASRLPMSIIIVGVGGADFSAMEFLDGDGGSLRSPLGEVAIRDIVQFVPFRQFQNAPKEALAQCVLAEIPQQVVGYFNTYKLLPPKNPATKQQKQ
UniProt O60333: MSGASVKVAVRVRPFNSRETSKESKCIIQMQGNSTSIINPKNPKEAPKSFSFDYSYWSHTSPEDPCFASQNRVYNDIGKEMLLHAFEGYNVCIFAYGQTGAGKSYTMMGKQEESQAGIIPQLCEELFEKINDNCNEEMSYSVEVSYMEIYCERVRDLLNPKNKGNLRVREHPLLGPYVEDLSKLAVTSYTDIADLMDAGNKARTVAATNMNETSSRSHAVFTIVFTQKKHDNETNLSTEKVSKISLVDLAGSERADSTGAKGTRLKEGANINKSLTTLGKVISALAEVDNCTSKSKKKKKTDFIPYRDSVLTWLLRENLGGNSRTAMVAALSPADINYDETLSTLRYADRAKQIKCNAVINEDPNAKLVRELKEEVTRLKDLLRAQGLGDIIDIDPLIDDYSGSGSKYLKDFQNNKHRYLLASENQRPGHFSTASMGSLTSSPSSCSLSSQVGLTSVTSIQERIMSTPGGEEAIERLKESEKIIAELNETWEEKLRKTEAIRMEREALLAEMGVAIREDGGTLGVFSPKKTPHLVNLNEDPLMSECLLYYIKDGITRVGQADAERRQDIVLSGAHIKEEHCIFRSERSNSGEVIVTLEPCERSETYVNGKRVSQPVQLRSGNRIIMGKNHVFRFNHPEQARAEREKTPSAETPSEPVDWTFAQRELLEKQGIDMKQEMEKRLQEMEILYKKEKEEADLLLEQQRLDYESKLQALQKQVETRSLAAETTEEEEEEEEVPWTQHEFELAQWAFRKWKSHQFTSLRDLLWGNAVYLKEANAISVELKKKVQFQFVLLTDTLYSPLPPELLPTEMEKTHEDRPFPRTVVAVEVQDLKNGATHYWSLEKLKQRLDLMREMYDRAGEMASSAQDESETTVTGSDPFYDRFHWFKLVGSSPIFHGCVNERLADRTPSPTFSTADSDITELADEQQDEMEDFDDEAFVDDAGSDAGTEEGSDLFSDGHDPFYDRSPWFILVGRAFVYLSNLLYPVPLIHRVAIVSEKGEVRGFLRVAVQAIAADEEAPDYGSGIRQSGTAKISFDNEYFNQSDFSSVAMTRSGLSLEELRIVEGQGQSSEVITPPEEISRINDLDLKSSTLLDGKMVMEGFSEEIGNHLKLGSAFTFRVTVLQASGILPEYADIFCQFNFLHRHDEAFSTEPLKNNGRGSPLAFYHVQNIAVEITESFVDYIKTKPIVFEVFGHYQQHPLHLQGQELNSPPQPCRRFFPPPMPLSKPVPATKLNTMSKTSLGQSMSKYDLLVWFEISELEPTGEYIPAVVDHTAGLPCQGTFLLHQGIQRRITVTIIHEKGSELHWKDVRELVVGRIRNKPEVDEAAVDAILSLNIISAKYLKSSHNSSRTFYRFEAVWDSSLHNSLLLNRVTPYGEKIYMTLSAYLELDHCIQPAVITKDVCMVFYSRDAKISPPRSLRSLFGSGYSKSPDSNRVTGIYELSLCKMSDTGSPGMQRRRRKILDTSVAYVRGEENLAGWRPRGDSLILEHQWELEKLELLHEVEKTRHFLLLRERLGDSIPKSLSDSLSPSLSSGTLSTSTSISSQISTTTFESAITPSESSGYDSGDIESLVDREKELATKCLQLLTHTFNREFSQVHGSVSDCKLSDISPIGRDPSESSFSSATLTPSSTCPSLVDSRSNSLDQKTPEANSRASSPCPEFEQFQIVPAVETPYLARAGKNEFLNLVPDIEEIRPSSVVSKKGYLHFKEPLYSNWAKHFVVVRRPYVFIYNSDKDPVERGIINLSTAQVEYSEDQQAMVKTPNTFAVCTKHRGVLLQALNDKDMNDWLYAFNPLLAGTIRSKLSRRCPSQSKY
UniProt O43913: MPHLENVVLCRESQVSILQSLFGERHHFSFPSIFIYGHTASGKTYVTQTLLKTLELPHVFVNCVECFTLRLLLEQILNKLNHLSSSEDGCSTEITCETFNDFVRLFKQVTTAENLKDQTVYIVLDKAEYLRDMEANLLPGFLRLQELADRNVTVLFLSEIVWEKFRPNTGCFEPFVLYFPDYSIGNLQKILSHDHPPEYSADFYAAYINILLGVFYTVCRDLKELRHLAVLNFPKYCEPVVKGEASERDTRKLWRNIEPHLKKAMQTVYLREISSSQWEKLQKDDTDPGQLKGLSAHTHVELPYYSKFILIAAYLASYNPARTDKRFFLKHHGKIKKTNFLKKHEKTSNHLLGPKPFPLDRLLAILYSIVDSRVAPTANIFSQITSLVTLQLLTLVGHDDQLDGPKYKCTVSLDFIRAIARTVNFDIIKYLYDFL
UniProt O60493, whole entry: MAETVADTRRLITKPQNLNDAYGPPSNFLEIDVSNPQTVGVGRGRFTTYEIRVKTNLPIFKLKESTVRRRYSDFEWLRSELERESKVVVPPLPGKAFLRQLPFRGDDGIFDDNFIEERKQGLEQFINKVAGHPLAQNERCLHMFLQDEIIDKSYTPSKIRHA

Compound: COC(=O)C#Cc1ccccc1 [methyl 3-phenylpropiolate]
Test: log2 ratio of iodoacetamide-alkyne labeling of the cysteine site, DMSO over compound (competition); higher = stronger covalent engagement of the cysteine by the compound, active = 1 or more
Details: 500 µM; treatment time 1 h; system: HEK293T cell lysate
Summary of the method: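 The log2 competition ratio per cysteine is defined as mean reporter intensity in control channels over mean reporter intensity in compound channels. Lysate from HEK293T cells (2 mg/mL) received electrophile (500 µM) or vehicle for 1 h at ambient temperature, followed by iodoacetamide alkyne for 1 h. Samples were clicked to sCIP-TMT reagents, pooled, trypsin-digested overnight at 37 °C, streptavidin-enriched, acid-eluted and run on Orbitrap Eclipse LC-MS/MS with FAIMS, with quantification in FragPipe. Three replicates with duplicate channels were used, and any cysteine quantified in only one replicate was excluded.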

log2 ratio of iodoacetamide-alkyne labeling, inactive:
RAD21 C392 (UniProt O60216) -0.047
UniProt O43929_C16 0.153
UniProt O43776_C438 0.348
SF3B1 C933 (UniProt O75533) 0.276
BUB3 C129 (UniProt O43684) 0.176
CCDC22 C369 (UniProt O60826) 0.818
UniProt O60232_C73 0.131
ROCK2 C330 (UniProt O75116) 0.0935
UniProt O60232_C56 0.126
NME6 C163 (UniProt O75414) 0.347
FLNB C2248 (UniProt O75369) -0.193
CSDE1 C506 (UniProt O75534) 0.266
SF3B1 C1059 (UniProt O75533) 0.247
DCTN3 C173 (UniProt O75935) -0.0748
SNRNP200 C133 (UniProt O75643) 0.0987
AQR C28 (UniProt O60306) 0.104
CPNE3 C506 (UniProt O75131) -0.262
UniProt O60610_C1227 0.284
KIF1B C1661 (UniProt O60333) 0.652
UniProt O43913_C10 0.908
UTP20 C2058 (UniProt O75691) 0.539
SNX3 C140 (UniProt O60493) 0.116

Two records picked at random from those above, as already listed:
log2 ratio of iodoacetamide-alkyne labeling, inactive:
NME6 C163 (UniProt O75414) 0.347
RAD21 C392 (UniProt O60216) -0.047
